Results of single-concentration screens

Chains of the proteins cited; added tags and fusions are not shown. Residues count along the entry.
UniProt Q4DA54, 1-478: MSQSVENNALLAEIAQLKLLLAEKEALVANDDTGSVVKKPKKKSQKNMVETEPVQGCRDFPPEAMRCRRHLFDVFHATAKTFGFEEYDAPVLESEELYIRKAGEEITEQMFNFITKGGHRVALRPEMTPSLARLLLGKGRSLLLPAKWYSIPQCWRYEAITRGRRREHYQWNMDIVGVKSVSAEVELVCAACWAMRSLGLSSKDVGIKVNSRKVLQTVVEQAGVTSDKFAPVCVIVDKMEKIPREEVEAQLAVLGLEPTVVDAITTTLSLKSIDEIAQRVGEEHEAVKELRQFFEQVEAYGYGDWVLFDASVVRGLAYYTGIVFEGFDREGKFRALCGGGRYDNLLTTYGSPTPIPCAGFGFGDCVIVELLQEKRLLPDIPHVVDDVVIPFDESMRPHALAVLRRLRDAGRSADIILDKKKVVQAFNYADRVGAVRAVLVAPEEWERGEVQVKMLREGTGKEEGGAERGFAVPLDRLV
UniProt Q8IDJ8, 1-583: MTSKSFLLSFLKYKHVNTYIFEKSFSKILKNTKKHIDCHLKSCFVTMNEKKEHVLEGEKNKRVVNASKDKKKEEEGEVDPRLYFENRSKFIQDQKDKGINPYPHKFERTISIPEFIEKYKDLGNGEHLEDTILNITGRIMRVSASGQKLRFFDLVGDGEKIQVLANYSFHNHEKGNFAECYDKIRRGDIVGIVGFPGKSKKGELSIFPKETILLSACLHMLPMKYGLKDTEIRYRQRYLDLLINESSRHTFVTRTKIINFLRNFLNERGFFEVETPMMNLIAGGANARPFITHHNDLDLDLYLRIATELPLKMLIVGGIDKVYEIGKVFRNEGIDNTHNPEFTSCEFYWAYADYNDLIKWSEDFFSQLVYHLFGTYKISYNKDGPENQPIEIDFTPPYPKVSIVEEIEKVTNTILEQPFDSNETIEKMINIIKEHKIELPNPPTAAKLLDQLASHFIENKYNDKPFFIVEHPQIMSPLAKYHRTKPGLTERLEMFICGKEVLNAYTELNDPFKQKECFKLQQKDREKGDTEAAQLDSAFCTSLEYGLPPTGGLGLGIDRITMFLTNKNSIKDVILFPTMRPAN

Measurements from “University of Dundee, Small-Polar-MMV Screening Library” (2021), ChEMBL document CHEMBL3988442.

TcHisRS: 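Enzyme assay of histidyl-tRNA synthetase; the read-out is not stated. Target: Histidine-tRNA ligase, Trypanosoma cruzi CL Brener (UniProt Q4DA54). Concentration: 30 µM. The record gives no direction; compounds that gave an IC50 in retests scored well above the rest, so higher reads as stronger inhibition. Of about 69,000 compounds tested this way, about 31 (0.045%) reached 50% or more in at least one test.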
PfKRS1: 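Enzyme assay of the cytosolic lysyl-tRNA synthetase in 384-well plates, read by luminescence. Target: Lysine-tRNA ligase, Plasmodium falciparum 3D7 (UniProt Q8IDJ8). Tested at 30 µM. Higher reads as stronger inhibition, judged from the few compounds that gave an IC50. Of about 69,000 compounds tested this way, about 49 (0.071%) reached 50% or more in at least one test.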

The filed quantity is “Percent Effect” (%).
How 0% and 100% were set is not recorded. Most values in the screen are low, and negative values occur.
Compounds were drawn at random from those tested, without regard to their results.

structure	TcHisRS	PfKRS1
O=C(c1cccs1)N1CCCC2(COCCN(c3cccnc3)C2)C1 (stereo not shown)	8.824	2.911
COc1ccc(CNC(=O)N2CCN(C)[C@@H]3CS(=O)(=O)C[C@@H]32)cc1	2.809	-0.1468
CC(C)C(=O)N1CCCC(Cc2ncccn2)C1 (stereo not shown)	2	-0.9254
Cc1ccc(C(CNCc2cccn2C)N2CCOCC2)s1 (stereo not shown)	6.897	5.525
Cc1ccc(CC2CCCN2CC(=O)NCc2ccccn2)cc1 (stereo not shown)	16.3	-6.442
NC(=O)c1cc(C2CCCN(CCCOc3ccc(F)cc3)C2)n[nH]1 (stereo not shown)	9.677	-1.011
Cc1cc(C(=O)NS(=O)(=O)Cc2ccon2)c(C)o1	9.412	6.178
CC(C)c1noc(CN2CCC(C3CCCCCN3S(C)(=O)=O)CC2)n1 (stereo not shown)	1.63	0.3507
Cc1nn(C)cc1CNC(=O)c1cn(CCC2CCCCN2)nn1 (stereo not shown)	4.564	1.691
FC(F)(F)c1cccc(-c2c[nH]c(C3CCCN3)n2)c1 (stereo not shown)	5.732	-0.3693
CC1CN(Cc2ccccc2Cn2cccn2)CCN1C (stereo not shown)	3.261	0.246
CN(Cc1cc2n(n1)CCCNC2)Cc1n[nH]c2c1CCC2	1.288	4.969
CCN(C)C[C@@H]1CN(C(=O)NC2CCCCC2)C[C@@H]1CO	3.004	2.479
O=S1(=O)COCCN1CCCOc1ccc(F)cc1	-4.545	5.145
Cc1ccc(N2CCCC(NCC(=O)Nc3cc(C)no3)C2)nn1 (stereo not shown)	5.639	5.492
COc1ccc(-n2ccnc2-c2cnc(C(C)C)nc2)cc1C(=O)O	6.077	1.176
Cn1cc(CN2CCC(c3ccncc3)CC2)cn1	5.303	-0.3415
CN(C)CC1CN(c2cnc3ccccc3n2)CCO1 (stereo not shown)	1.504	7.525
CN(C)C(=O)c1cccc(CNc2ccc(C#N)cn2)c1	-9.744	1.991
O=C1COc2cc(C(=O)NS(=O)(=O)c3ccc(F)cc3)ccc2N1	2.89	3.215
O=C(CCOc1ccccc1F)N1CCCC(n2cncn2)C1 (stereo not shown)	7.918	-0.1004
COC[C@H]1CNC(=O)[C@@H]2CCN(Cc3ccc(F)cc3)CC[C@H]12	5.882	4.687
CCc1noc(C2CCN(C(=O)CCn3nc(C)cc3C)CC2)n1	1.674	3.042
CNS(=O)(=O)c1cccc(C(C)NCc2ccc(C)o2)c1 (stereo not shown)	0	2.626
CCCNC(=O)NCc1cccnc1OC	3.396	-0.5862
Cc1ccc(NC2CCN(C(=O)Cc3ccc(C)s3)CC2)nn1	7.163	-1.019
CCN(CC)C(=O)c1nnsc1-c1ccc(Cl)cc1	2.591	4.264
Cc1cncc(C(=O)N2CC[C@@]3(C[C@H](NS(C)(=O)=O)CCO3)C2)c1	14.71	1.747
O=C(N[C@@H]1CCC[C@@H](N2CCCC2)[C@@H]1O)c1cc2ccccc2[nH]1	5.97	-0.09985
CC(O)CN1CCN(CCOCC(F)(F)F)CC1 (stereo not shown)	2.051	-1.268
COCCN(C)C[C@@H]1CN(C(=O)c2ccc(O)c(Cl)c2)C[C@@H]1CO	-0.5025	-0.3838
c1ccc(CN2CCC(Nc3ncnc4c3CCNCC4)C2)cc1 (stereo not shown)	8	-1.405
COc1cccc([C@@H]2CCN(Cc3[nH]nc(C)c3Cl)C[C@H]2O)c1	-2.424	2.273
COCC(=O)Nc1cnc(N2CCOCC2)nc1	4.39	4.628
Cn1cc(CN(C(=O)c2ccc(O)c(Cl)c2)C2CC2)cn1	4.478	2.829
CC(=O)c1cccc(OCCCC(=O)N(C)Cc2ccccn2)c1	1.667	1.203
CCOc1cccc(COC(=O)c2ccc(Cl)cn2)n1	7.895	1.814
CCc1ccc(CN2CCN(C)c3ncccc3C2)o1	7.104	-1.472
CN(C(=O)C1CSCN1S(=O)(=O)c1ccc(F)cc1)C1CC1 (stereo not shown)	-0.8475	8.369
COC(=O)C(C)(C)NC(=O)c1scnc1Cl	5.172	4.84
COCCN1CCc2c(c(COc3cccnc3)nn2C)C1	-2.116	1.076
NC(=O)C1CCN(Cc2cccc(NC(=O)c3ccsc3)c2)CC1	4.564	1.869
COCCN1C[C@H]2CN(C(=O)c3ccc4c(c3)OCO4)CCN2C1=O	9.901	2.874

Some entries from above, unchanged:

structure,TcHisRS,PfKRS1
Cc1cncc(C(=O)N2CC[C@@]3(C[C@H](NS(C)(=O)=O)CCO3)C2)c1,14.71,1.747
Cc1cc(C(=O)NS(=O)(=O)Cc2ccon2)c(C)o1,9.412,6.178
CN(C(=O)C1CSCN1S(=O)(=O)c1ccc(F)cc1)C1CC1 (stereo not shown),-0.8475,8.369